The conditions of the series: CF-1 mice, 10 μmol/kg IV tail vein, non-perfused brain corrected for plasma volume.

As for `CN1C(=O)CN=C(c2ccccc2)c2cc(Cl)ccc21` [Diazepam], the “concentration level in the brain at 5 min” value (5 min post dose) was 5481 nM. Moreover, the “concentration level in the brain at 60 min” value (60 min post dose) amounted to 176 nM.

The values are drawn from US7906556B2, “Methods of treating amyloidosis using cyclopropyl derivative aspartyl protease inhibitors” (Elan Pharmaceuticals, Inc., priority 2005, dated 2011).
